Test results published in doi:10.1101/513960.
Results are given in words; binding and its absence hold for the method and conditions named. Some results given as binding are weak or reduced against the parent protein; the word gives no strength.

Molecular target: T1, Scc1 kleisin (S. cerevisiae) (UniProt Q12158)
T1 sequence: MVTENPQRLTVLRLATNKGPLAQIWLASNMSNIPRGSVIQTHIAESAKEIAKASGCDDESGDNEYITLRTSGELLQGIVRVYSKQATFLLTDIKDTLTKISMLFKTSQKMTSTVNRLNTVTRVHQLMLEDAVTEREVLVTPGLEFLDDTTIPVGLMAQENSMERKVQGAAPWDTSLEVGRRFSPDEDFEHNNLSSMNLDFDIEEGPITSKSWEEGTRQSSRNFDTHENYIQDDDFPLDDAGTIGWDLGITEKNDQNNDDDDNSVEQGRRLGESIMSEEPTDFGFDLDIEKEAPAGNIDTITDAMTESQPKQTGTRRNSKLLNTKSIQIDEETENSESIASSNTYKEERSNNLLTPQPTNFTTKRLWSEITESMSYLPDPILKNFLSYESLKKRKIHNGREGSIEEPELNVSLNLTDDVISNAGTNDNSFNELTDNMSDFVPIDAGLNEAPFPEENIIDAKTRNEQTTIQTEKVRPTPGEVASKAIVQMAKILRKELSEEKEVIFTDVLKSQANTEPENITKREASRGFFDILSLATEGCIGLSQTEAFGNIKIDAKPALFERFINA
Test: co-purification

binding: binds
B1: Scc3 (protein, UniProt P40541 1-1150)
chain: MTAVRRSTRIRTKSQVIEEDYDDEQNTSAQHVESDKITAKTQHEEEEEQDTGESEESSSEDDYEDQDDDDYVDTATAKRKSRKRKPKSASNTSSKRQKKKPTSAQKSAVSHAPAYHRSKKDQDQYLEIAKDFQPTELFDILSTSEDVSIEELLREWLETYSENRDKFLQEFINLLLNCCGSVARVEDHDVHSNESSNETIGEIQLLFQRQKLHEFYLLISKENKKRKNFKMGPLYQNFAEFMTKLLEVANDLQLLYVESDEDDTQIVTGNLVLDLLTWLSSFSVCKIRCFRYISTLTLYLFQDYLTQQAVNLEKNYLAKLSKQLSLEEKKKRPNNKTLEKLESTIAETQGSKVVIDSIIDNIVKLCFVHRYKDVSDLIRSESMLHLSIWIKNYPEYFLKVTFLKYFGWLLSDNSVSVRLQVTKILPHLIIQNHNSKSTDNSAIRQVFERFKTKILEVAIRDVNLDVRIHSIQVLTEASSLGYLDDSEILIISSLMFDEEFDPFKTSSFNKRSKFLSTVAKFLARVIKEKFDEFIKTHEDLPKEVDGLEVGPVVQVGIFIKILNDSLIYHLKDCAEVDSRTKIRMLTQAAEFLSPYISTHLKTICNLLISDTESNELIQKLQNSANNNSDDEDVDDEELDITPLFPIDRNSTILYLNVFHGLCAGANNPKIQTKDSVKEIVLPLFYDLLNAASIESADILCPLLESFITFSLDDWISIGYETELKKITDKTIKAFMDSTIGNSKVDMKYDIFAKFIHHIHHFEKKELQEKFLNQIATLKIHLKKFLQEKMDPNNSRDDYKDLTCSLYELYINKLTILGRDYPIEVDEELLQLFLNNFVSRIPIMFQDFDDSTAQEINFKMLVLLATWNLEKWREIIEKVRDYENSISKDLRSVWKPIAAIIGRLNTLVISLAATNETFENINSLFYLKWSACTSLMDIIVAIKIFELKLPADATTWRYSMSEQFPFYLHDNASKVLLKIFLYLESLFAKQVDVQLERVADEDANLNDLPETGFFENIETEFLLFTVKLKGLMKLNILDERFASRVALNKEKLGPLFKKIVDDTIMENPEPNKKNIQKAKSNQTQREKAPLQPNSERETDHANTENNDPDIPMTIDLEPIEESSQNNSELAPIEEHPTVVDAIDNSDEITQD
